Publication PMC12803839
No constants are given. Whether binding was seen depends on the method and setting. Binding seen in cells or lysates may run through a third protein. Some entries that bind do so weakly or less than the wild type.

The chains behind the UniProt entries cited, without tags or fusion partners.
UniProt P46937: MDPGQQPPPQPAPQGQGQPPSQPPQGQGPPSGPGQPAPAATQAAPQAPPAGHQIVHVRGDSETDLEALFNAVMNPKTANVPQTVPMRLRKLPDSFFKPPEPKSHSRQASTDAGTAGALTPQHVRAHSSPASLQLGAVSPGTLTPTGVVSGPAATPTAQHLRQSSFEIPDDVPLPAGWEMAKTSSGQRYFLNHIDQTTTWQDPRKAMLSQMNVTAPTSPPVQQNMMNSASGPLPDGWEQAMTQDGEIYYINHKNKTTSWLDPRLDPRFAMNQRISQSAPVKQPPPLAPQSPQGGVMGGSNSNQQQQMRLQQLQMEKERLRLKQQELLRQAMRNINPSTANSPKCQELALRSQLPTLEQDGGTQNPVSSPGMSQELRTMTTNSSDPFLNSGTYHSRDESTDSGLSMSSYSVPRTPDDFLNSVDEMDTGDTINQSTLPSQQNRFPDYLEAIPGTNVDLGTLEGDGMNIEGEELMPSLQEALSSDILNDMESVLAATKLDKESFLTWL
UniProt P14618: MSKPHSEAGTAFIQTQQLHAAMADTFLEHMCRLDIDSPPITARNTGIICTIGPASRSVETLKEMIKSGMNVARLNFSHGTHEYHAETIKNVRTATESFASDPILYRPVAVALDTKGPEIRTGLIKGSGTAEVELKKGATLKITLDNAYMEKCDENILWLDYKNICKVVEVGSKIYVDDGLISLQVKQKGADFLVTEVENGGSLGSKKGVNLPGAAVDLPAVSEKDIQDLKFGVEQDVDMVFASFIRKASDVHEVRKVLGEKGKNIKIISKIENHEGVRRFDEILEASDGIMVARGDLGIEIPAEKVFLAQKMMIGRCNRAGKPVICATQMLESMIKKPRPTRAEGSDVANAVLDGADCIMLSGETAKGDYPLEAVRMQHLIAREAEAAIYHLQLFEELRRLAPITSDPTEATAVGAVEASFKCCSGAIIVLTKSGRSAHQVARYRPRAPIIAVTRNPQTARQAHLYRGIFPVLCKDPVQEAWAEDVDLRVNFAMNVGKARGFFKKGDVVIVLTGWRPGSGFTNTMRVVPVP

What was measured:
[1] = target: Yes-associated protein (human (endogenous in HK-2)) (UniProt P46937); test: co-IP; HK-2 cells after OGD/R (DMSO vehicle control), lysed in RIPA buffer; anti-PKM2 antibody overnight at 4 °C, captured on Dynabeads M-280 sheep anti-rabbit IgG; blots for YAP1 and β-catenin; rabbit serum as control; reciprocal IPs named in the results only
[2] = target: pyruvate kinase M2 (human (endogenous in HK-2)) (UniProt P14618); test: as above

binding [1] | binding [2] | Substance
binds |  | pyruvate kinase M2 (from UniProt P14618 1-531)
 | binds | Yes-associated protein (from UniProt P46937 1-504)
